Experimental data reported in PubChem BioAssay AID342 (DTP/NCI, 2004).
The list is a part of this screen's results and no random one: it gathers tests that were run many times, whatever their T/C, doses with no T/C, and many T/C values between a quarter and a half above the control. Other doses and runs of a compound stand elsewhere. T/C: endpoint of the treated group in % of that of the vehicle group. Schedules are NCI's codes, read here as Q, the interval in days (D) or hours (H), X, the number of doses. Some T/C values carry the count of animals alive at the toxicity check (mostly the fifth day); where none is given, no animal had died by that day. Some doses have a count of surviving animals in place of a T/C: the source holds a T/C of zero for them, seemingly a mark for toxic or unscored doses. Counts of survivors are from the toxicity check (mostly the fifth day) where no day follows; animals may have died later. Some entries were tested several times; their values stand side by side, smallest first. Some schedule codes hold Z or #, which are not explained here.

Tested on: Swiss mice, Sarcoma 180 sc, mean tumor weight T/C
Test: NCI In Vivo Anticancer Drug Screen. Data for tumor model Sarcoma 180 (subcutaneous) in Swiss mice
Conditions: T/C endpoint: mean tumor weight, higher T/C = larger tumour; for T/C: evaluated on day 8
Outline: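 Tumor-bearing mice, transplantable tumor; readout survival or tumor size; result = T/C, treated vs vehicle control.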

[1] = dose: 75.0 mg/kg/injection, schedule: Q01DX007 (ip), vehicle: carboxymethylcellulose (CMC)
[2] = dose: 60.0 mg/kg/injection, schedule: Q01DX007 (ip), vehicle: carboxymethylcellulose (CMC)
[3] = dose: 250.0 mg/kg/injection, schedule: Q01DX007 (ip), vehicle: carboxymethylcellulose (CMC)
[4] = dose: 125.0 mg/kg/injection, schedule: Q01DX007 (ip), vehicle: carboxymethylcellulose (CMC)
[5] = dose: 6.2 mg/kg/injection, schedule: Q01DX007 (ip), vehicle: saline
[6] = dose: 100.0 mg/kg/injection, schedule: Q01DX007 (ip), vehicle: carboxymethylcellulose (CMC)

SMILES: CCc1nc(N)nc(N)c1-c1ccc(Cl)c(Cl)c1.[Cl][Pd][Cl]
- survivor count (dose: 22.5 mg/kg/injection, schedule: Q01DX007 (ip), vehicle: carboxymethylcellulose (CMC)): 4 of 7
- survivor count (dose: 33.0 mg/kg/injection, schedule: Q01DX007 (ip), vehicle: carboxymethylcellulose (CMC)): 0 of 6
- survivor count (dose: 50.0 mg/kg/injection, schedule: Q01DX007 (ip), vehicle: carboxymethylcellulose (CMC)): 0 of 6
- survivor count [1]: 0 of 6

SMILES: O=CNc1c(Cl)c(Cl)c2c(c1Cl)Cc1cc(Cl)ccc1-2
- survivor count [2]: 2 of 6
- survivor count (dose: 110.0 mg/kg/injection, schedule: Q01DX007 (ip), vehicle: carboxymethylcellulose (CMC)): 2 of 6
- survivor count [3]: 3 of 6
- survivor count (dose: 375.0 mg/kg/injection, schedule: Q01DX007 (ip), vehicle: carboxymethylcellulose (CMC)): 1 of 6

SMILES: O=CNc1c(Br)cc2c(c1Br)Cc1cc([N+](=O)[O-])ccc1-2
- survivor count (dose: 26.6 mg/kg/injection, schedule: Q01DX007 (ip), vehicle: carboxymethylcellulose (CMC)): 3 of 6
- survivor count (dose: 40.0 mg/kg/injection, schedule: Q01DX007 (ip), vehicle: carboxymethylcellulose (CMC)): 2 of 6
- survivor count [2]: 1 of 6
- survivor count (dose: 90.0 mg/kg/injection, schedule: Q01DX007 (ip), vehicle: carboxymethylcellulose (CMC)): 0 of 6

SMILES: O=c1[nH]cc(N(CCCl)CCCl)c(=O)[nH]1
- survivor count (dose: 1.25 mg/kg/injection, schedule: Q#A X014 (ip), vehicle: carboxymethylcellulose (CMC)): 2 of 6
- survivor count (dose: 1.6 mg/kg/injection, schedule: Q01DX007 (ip), vehicle: carboxymethylcellulose (CMC)): 6 of 10
- survivor count (dose: 3.0 mg/kg/injection, schedule: Q01DX007 (ip), vehicle: saline): 3 of 6

SMILES: CN(C)c1ccc(/C=C/c2ccnc3ccccc23)cc1
- T/C (dose: 7.75 mg/kg/injection, schedule: Q01DX007 (ip), vehicle: water): 127 % of control
- survivor count (dose: 31.0 mg/kg/injection, schedule: Q01DX007 (ip), vehicle: water): 0 of 6
- survivor count (dose: 62.0 mg/kg/injection, schedule: Q01DX007 (ip), vehicle: water): 0 of 6
- survivor count [4]: 2 of 6
- survivor count [3]: 0 of 6
- survivor count (dose: 500.0 mg/kg/injection, schedule: Q01DX007 (ip), vehicle: carboxymethylcellulose (CMC)): 0 of 6

SMILES: NCC(O)c1ccc(O)c(O)c1 (centres undefined)
- T/C [5]: 135 % of control [5 of 6 alive]
- survivor count [5]: 0 of 6
- survivor count (dose: 25.0 mg/kg/injection, schedule: Q01DX007 (ip), vehicle: saline): 1 of 6
- survivor count (dose: 50.0 mg/kg/injection, schedule: Q01DX007 (ip), vehicle: saline): 1 of 6

SMILES: CCCCCN(C)/N=N/c1nc[nH]c1C(N)=O
- survivor count [6]: 3 of 6
- survivor count (dose: 150.0 mg/kg/injection, schedule: Q01DX007 (ip), vehicle: carboxymethylcellulose (CMC)): 2 of 6 and 3 of 6

SMILES: CCC1=C(c2cc(Cl)c3ccccc3c2OCC(=O)O)OC(CC)(C(=O)c2cc(Cl)c3ccccc3c2OCC(=O)O)CC1 (centres undefined)
- survivor count (dose: 18.75 mg/kg/injection, schedule: Q01DX007 (ip), vehicle: other): 0 of 6
- survivor count (dose: 25.0 mg/kg/injection, schedule: Q01DX007 (ip), vehicle: other): 0 of 6
- survivor count (dose: 37.5 mg/kg/injection, schedule: Q01DX007 (ip), vehicle: other): 0 of 6
- survivor count (dose: 50.0 mg/kg/injection, schedule: Q01DX007 (ip), vehicle: other): 0 of 6
- survivor count (dose: 75.0 mg/kg/injection, schedule: Q01DX007 (ip), vehicle: other): 0 of 7
- survivor count (dose: 111.0 mg/kg/injection, schedule: Q01DX007 (ip), vehicle: other): 0 of 7
- survivor count (dose: 166.0 mg/kg/injection, schedule: Q01DX007 (ip), vehicle: other): 0 of 7 and 3 of 6
- survivor count (dose: 250.0 mg/kg/injection, schedule: Q01DX007 (ip), vehicle: other): 0 of 6 and 0 of 7

SMILES: CC(=O)OCC(=O)[C@@]1(O)CC[C@H]2[C@@H]3CCC4=CC(=O)C=C[C@]4(C)[C@@]3(F)[C@@H](O)C[C@@]21C
- survivor count (dose: 13.5 mg/kg/injection, schedule: Q#A X014 (sc), vehicle: steroid suspending solution): 1 of 6
- survivor count (dose: 20.0 mg/kg/injection, schedule: Q#A X014 (sc), vehicle: steroid suspending solution): 3 of 6
- survivor count (dose: 30.0 mg/kg/injection, schedule: Q#A X014 (sc), vehicle: steroid suspending solution): 1 of 6
- survivor count (dose: 45.0 mg/kg/injection, schedule: Q#A X014 (sc), vehicle: steroid suspending solution): 2 of 6

SMILES: Cc1nc(C(N)=O)nc2ccccc12
- survivor count (dose: 250.0 mg/kg/injection, schedule: Q#A X014 (ip), vehicle: methylcellulose (MC)): 3 of 6
- survivor count (dose: 300.0 mg/kg/injection, schedule: Q01DX007 (ip), vehicle: carboxymethylcellulose (CMC)): 1 of 6 and 2 of 7
- survivor count (dose: 450.0 mg/kg/injection, schedule: Q01DX007 (ip), vehicle: carboxymethylcellulose (CMC)): 0 of 6
- survivor count (dose: 675.0 mg/kg/injection, schedule: Q01DX007 (ip), vehicle: carboxymethylcellulose (CMC)): 0 of 6

SMILES: CN(C)c1ccc(/C=C\c2ccnc3ccccc23)cc1
- T/C (dose: 10.0 mg/kg/injection, schedule: Q01DX007 (ip), vehicle: methylcellulose (MC)): 143 % of control
- survivor count (dose: 100.0 mg/kg/injection, schedule: Q01DX007 (ip), vehicle: water): 1 of 6

SMILES: CO/[N+]([O-])=C\C(=O)N/C=C/C(=O)O
- survivor count [6]: 0 of 6
- survivor count (dose: 200.0 mg/kg/injection, schedule: Q01DX007 (ip), vehicle: carboxymethylcellulose (CMC)): 0 of 6
- survivor count (dose: 400.0 mg/kg/injection, schedule: Q01DX007 (ip), vehicle: carboxymethylcellulose (CMC)): 0 of 6

SMILES: O=NN(CCCl)C(=O)NCCCl
- survivor count (dose: 24.0 mg/kg/injection, schedule: Q01DX007 (ip), vehicle: saline): 2 of 6

SMILES: C[C@]12CC[C@H](O)CC1=CC[C@@H]1[C@@H]2CC[C@]2(C)c3nc4ccccc4cc3C[C@@H]12
- T/C (dose: 31.3 mg/kg/injection, schedule: Q01DX007 (sc), vehicle: saline): 128 % of control

SMILES: CC(=O)[C@@]1(O)CC[C@H]2[C@@H]3C[C@H](C)C4=CC(=O)C=C[C@]4(C)[C@@]3(F)[C@@H](O)C[C@@]21C
- T/C (dose: 13.8 mg/kg/injection, schedule: Q01DX007 (sc), vehicle: steroid suspending solution): 138 % of control
- survivor count (dose: 27.5 mg/kg/injection, schedule: Q#A X014 (sc), vehicle: steroid suspending solution): 1 of 7
- survivor count (dose: 41.5 mg/kg/injection, schedule: Q#A X014 (sc), vehicle: steroid suspending solution): 1 of 7
- survivor count (dose: 62.5 mg/kg/injection, schedule: Q#A X014 (sc), vehicle: steroid suspending solution): 3 of 7
- survivor count (dose: 125.0 mg/kg/injection, schedule: Q01DX007 (sc), vehicle: steroid suspending solution): 2 of 6
- survivor count (dose: 187.5 mg/kg/injection, schedule: Q01DX007 (sc), vehicle: steroid suspending solution): 3 of 6
- survivor count (dose: 2000.0 mg/kg/injection, schedule: Q01DX007 (sc), vehicle: steroid suspending solution): 4 of 7

SMILES: CO[C@H]1C[C@H](O[C@H]2CC[C@]3(C=O)[C@H]4CC[C@]5(C)[C@@H](C6=CC(=O)OC6)CC[C@]5(O)[C@@H]4CC[C@]3(O)C2)O[C@H](C)[C@H]1O
- survivor count (dose: 10.0 mg/kg/injection, schedule: Q01DX007 (sc), vehicle: saline): 2 of 6
- survivor count (dose: 20.0 mg/kg/injection, schedule: Q01DX007 (sc), vehicle: saline): 3 of 6

SMILES: S=P(N1CC1)(N1CC1)N1CC1
- survivor count (dose: 1750.0 mg/kg/injection, schedule: Q#A X014 (ip), vehicle: carboxymethylcellulose (CMC)): 5 of 10

SMILES: N#CCOC(=O)CCC(NC(=O)OCc1ccccc1)C(N)=O (centres undefined)
- survivor count [1]: 2 of 6

SMILES: CCCCN(C)/N=N/c1nc[nH]c1C(N)=O
- survivor count [3]: 0 of 6

SMILES: C=CCn1cnc2c(=S)nc[nH]c21
- survivor count [4]: 3 of 6
- survivor count [3]: 1 of 6
